Experiment [1] addresses FLAG-tagged BMAL1 (786O cells) (UniProt O00327). As to the kind of experiment: co-IP; 786O cells transiently transfected with pTwist FLAG plasmids; RIPA lysate; FLAG tag immunoprecipitated with anti-Flag M2 agarose beads; immunoblot.
Experiment [2] addresses Full-length human BMAL1 with an N-terminal Strep tag (human) (UniProt O00327). The experiment in a line: mass photometry; purified co-expressed complex at low concentration (20 nM); 20 mM Tris-HCl pH 8.0, 100 mM KCl, 0.5 mM TCEP; Refeyn OneMP; both purified.
Experiment [3] has the same target. The experiment in a line: co-elution in heparin chromatography; both proteins co-expressed in insect cells; Strep-Tactin eluate diluted to 100 mM NaCl, applied to a heparin column, eluted with a linear salt gradient; SDS-PAGE of the fractions; both purified.

Protein sequences, listed by entry. Tags and fused reporters are not part of them.
UniProt O00327: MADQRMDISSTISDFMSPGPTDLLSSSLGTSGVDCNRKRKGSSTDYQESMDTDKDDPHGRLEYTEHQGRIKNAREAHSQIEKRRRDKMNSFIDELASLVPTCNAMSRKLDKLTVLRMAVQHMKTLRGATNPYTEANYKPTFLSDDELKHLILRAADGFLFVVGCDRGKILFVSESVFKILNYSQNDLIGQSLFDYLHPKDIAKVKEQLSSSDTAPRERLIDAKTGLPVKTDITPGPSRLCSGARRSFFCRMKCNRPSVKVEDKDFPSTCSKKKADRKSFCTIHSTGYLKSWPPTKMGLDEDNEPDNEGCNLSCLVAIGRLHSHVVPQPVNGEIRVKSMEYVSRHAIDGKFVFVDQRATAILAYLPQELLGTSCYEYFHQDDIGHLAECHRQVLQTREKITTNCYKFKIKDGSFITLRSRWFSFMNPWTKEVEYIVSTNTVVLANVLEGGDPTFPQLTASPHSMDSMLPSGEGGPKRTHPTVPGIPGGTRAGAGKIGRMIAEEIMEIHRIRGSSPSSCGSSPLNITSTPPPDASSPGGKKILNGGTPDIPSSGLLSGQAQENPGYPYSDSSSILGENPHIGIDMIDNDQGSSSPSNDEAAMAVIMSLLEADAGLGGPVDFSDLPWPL
UniProt Q99814: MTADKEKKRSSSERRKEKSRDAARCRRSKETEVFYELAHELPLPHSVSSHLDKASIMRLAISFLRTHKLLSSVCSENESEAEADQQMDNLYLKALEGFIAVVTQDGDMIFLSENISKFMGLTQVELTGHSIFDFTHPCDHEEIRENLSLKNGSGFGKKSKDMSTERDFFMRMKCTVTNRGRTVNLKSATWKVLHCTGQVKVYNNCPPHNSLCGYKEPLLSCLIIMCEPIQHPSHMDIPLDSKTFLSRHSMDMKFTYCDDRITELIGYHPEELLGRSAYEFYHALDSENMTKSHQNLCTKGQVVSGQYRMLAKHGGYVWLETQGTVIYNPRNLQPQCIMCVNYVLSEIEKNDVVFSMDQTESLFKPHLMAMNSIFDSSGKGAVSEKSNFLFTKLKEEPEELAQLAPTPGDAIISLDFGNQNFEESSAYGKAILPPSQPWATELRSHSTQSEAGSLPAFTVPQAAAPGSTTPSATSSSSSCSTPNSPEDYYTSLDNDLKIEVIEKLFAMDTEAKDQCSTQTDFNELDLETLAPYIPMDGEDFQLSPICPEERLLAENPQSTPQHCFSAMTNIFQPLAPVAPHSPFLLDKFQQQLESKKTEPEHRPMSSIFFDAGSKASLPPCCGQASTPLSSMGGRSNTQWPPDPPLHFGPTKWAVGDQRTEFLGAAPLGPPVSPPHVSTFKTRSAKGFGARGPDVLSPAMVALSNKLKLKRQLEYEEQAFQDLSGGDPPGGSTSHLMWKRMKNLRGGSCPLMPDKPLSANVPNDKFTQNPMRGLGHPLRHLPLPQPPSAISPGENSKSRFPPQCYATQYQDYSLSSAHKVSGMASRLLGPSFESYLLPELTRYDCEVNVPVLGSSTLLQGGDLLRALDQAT

These are yes or no findings as the source states them, for the method shown. For part of these data: Binding seen in cells or lysates may run through a third protein. Some binding calls cover weakened binding; strength is not graded here.

Regarding “endogenous wildtype HIF2α (786O cells) (from UniProt Q99814 1-870)”, the binding entry in experiment [1] is “binds”. Turning to “Full-length human HIF2α with an N-terminal Strep tag (from UniProt Q99814 1-870)”, the binding result in experiment [2] and in experiment [3] was “binds” each time.

Source of the values: publication PMC11275985.
